Measurements from publication PMC6289470.
These are yes or no findings as the source states them, for the method shown. For some assays here: Binding seen in cells or lysates may run through a third protein. Some results given as binding are weak or reduced against the parent protein; the word gives no strength. Sequences can lack the tags named with a protein.

B1: OsIAA12, two-hybrid fusion (protein, UniProt Q75GK1 1-226)
chain: MEAAVGYAADSLIKATELRLGLPGTADDLPSTPRGKKRAAAAEDNNANAAAADDDEHDAVEAAPPVAKAQVVGWPPVRSYRKSCFQQQSAAASKSKAAVSSCNNKDEPITKNAAPAPAASSAAAANGGSLVKVSMDGAPYLRKIDLRMYKGYRELREALEAMFVCFSGAADGANPSEFAITYQDKDGDLMLVGDVPFDMFTSTCKKLRIMKRSEATGLGSPRQMKI
B2: N-terminal YFP fused OsIAA12 (nYFP-OsIAA12) (protein, UniProt Q75GK1 1-226)
chain: B1 chain

Key:
[1] = biological target: T1, OsARF17, two-hybrid fusion (rice (Oryza sativa japonica, ZH11)) (UniProt Q653U3); experiment: two-hybrid; constructs in pGADT7 and pGBKT7 co-transformed into yeast AH109; transformants diluted 10^1, 10^2, 10^3 times, grown on SD -Leu/-Trp/-His/-Ade for 4 days
T1 sequence: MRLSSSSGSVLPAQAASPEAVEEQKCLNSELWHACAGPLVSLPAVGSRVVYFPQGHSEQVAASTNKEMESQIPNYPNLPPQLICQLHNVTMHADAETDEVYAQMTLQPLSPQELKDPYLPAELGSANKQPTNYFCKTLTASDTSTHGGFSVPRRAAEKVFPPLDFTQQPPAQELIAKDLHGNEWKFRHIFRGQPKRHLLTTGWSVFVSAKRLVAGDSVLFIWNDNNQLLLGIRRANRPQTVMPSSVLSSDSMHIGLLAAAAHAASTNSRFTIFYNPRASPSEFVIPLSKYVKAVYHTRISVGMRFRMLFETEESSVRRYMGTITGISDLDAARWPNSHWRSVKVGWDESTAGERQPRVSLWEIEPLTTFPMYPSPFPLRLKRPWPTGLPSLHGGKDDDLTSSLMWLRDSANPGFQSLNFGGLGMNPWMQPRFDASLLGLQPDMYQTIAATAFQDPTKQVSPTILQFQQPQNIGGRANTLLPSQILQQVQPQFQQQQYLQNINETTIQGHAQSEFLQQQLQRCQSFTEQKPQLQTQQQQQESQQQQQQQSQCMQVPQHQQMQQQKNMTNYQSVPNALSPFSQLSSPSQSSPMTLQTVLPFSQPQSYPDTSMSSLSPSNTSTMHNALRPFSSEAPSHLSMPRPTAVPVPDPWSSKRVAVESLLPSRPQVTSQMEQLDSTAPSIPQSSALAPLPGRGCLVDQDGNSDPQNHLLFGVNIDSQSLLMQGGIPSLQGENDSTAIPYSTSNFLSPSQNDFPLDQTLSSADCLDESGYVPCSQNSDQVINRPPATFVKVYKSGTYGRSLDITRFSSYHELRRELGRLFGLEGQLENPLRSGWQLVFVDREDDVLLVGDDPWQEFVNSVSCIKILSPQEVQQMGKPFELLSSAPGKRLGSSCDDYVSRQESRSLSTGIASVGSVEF

[2] = biological target: T2, C-terminal YFP fused OsARF17 (OsARF17-cYFP) (rice (Oryza sativa japonica, ZH11)) (UniProt Q653U3); experiment: split reporter; split-YFP; nYFP-OsIAA12 and OsARF17-cYFP expressed in N. benthamiana leaves by Agrobacterium infiltration, YFP fluorescence observed by confocal microscopy after 48 h
T2 sequence: T1 sequence

Row | Binder | binding [1] | binding [2]
1 | B1 | binds | 
2 | B2 |  | binds
